Screen size: about 330,000 compounds; about 7,700 (2.3%) were called active. The shares of active, inactive and inconclusive entries below differ from those in the screen. The call rests on the fitted dose curve; in most records, active means well fitted inhibition curve with a large enough effect; inconclusive means small, poorly fitted or top-dose-only effect, or effect the other way; inactive means flat fitted curve, though single readings scatter. Where the call is inconclusive, the potency comes from a doubtful curve fit.
Test: qHTS screen for small molecules that inhibit ELG1-dependent DNA repair in human embryonic kidney (HEK293T) cells expressing luciferase-tagged ELG1; further: nearly all actives have a fitted effect of over 55% in size
Details: HEK293T ELG1-luciferase reporter, luminescence, 16 h, DNA damage induced by 5-fluorouridine; activity change, negative = inhibition: at 46.1 µM (top of the series)
How it was run: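 DMSO vehicle served as the neutral condition. Each well held 2,000 cells given 5-fluorouridine plus compound; after 16 hr at 37 °C/5% CO2, ONE-Glo was added and luciferase measured 30 min later.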
On the % scale 0 is the no-effect control and ±100 the full control effect; potency means the concentration at half of the fitted maximal effect.

Question: Which Potency does the source give for `CCc1ccc(O)c(-c2cc(C(=O)Nc3cccnc3)[nH]n2)c1` here?
Answer: The Potency was inconclusive: 7.3 µM [activator, partial curve].

Question: For `CCCCC(=O)Nc1ccc(C(=O)Nc2ccc(S(=O)(=O)Nc3ccc(C)cc3)cc2)cc1`, which “activity change, negative = inhibition” value is on record?
Answer: Its value is inactive: 12.4%.

Question: With `O=C(Nc1cccc2ccccc12)c1ccccc1NS(=O)(=O)c1cccc2cccnc12` as the compound, how does the “activity change, negative = inhibition” value read?
Answer: Its value is inactive: -3.03%.

Question: For `CN1C(=O)C(Cl)(Cl)C(=O)c2ccccc21`, which Potency is on record?
Answer: Its Potency is inconclusive: 18.4 µM [inhibitor, partial curve, poor fit].

Question: Which Potency does the source give for `CCOc1cc(NC(=O)c2ccccn2)c(OCC)cc1NC(=O)c1ccccc1` here?
Answer: Its Potency is inconclusive: 6.51 µM [inhibitor, single point].

Question: For `COc1ccc(NC(C)=O)cc1S(=O)(=O)N1CCc2ccccc21`, which Potency is on record?
Answer: The Potency was inconclusive: 23.1 µM [activator, partial curve].

Question: For `Clc1ccc(CCNc2nc3ccccc3s2)cc1`, which Potency is on record?
Answer: The Potency was inconclusive: 14.6 µM [activator, partial curve].

Question: For `CCOC(=O)NC(=O)CSc1nc2ccc(C)cc2[nH]1`, which Potency is on record?
Answer: Its Potency is inconclusive: 18.3 µM [activator, partial curve, poor fit].

Question: With `CC(=O)c1ccc(N2CCN(S(=O)(=O)c3ccc4c(c3)CC(C)N4C(=O)C3CC3)CC2)cc1` (configuration not stated) as the compound, how does the Potency read?
Answer: Its Potency is inconclusive: 4.61 µM [inhibitor, single point].

Question: For `CCCSc1nc(C)c(C(C)=O)cc1C#N`, which Potency is on record?
Answer: The Potency was inconclusive: 20.6 µM [activator, partial curve, poor fit].

Question: For `O=C(NCc1ccco1)c1nc2c(nnn2Cc2ccccc2Cl)c(=O)[nH]1`, which Potency is on record?
Answer: The Potency was active: 20.6 µM.

Question: With `Cc1c(NC(=S)/C=C2\N(C)c3ccccc3C2(C)C)c(=O)n(-c2ccccc2)n1C` as the compound, how does the “activity change, negative = inhibition” value read?
Answer: The value was inactive: -20.6%.

Question: For `Cn1c(=O)c2c(ncn2CCOc2cccc(Br)c2)n(C)c1=O`, which Potency is on record?
Answer: The Potency was active: 8.2 µM.

Question: For `O=C(OC1C2CCC1C1CN(CCc3ccccc3)CC12)c1ccccc1` (configuration not stated), which Potency is on record?
Answer: The Potency was inconclusive: 23.1 µM [inhibitor, partial curve, poor fit].

Question: With `CN(C)c1ccc(Nc2c3c4c(cccc4n(C)c2=O)C(=O)c2ccccc2-3)cc1` as the compound, how does the Potency read?
Answer: The Potency was active: 7.31 µM.

Question: Which “activity change, negative = inhibition” value does the source give for `CON(C)C(=O)CC(CNC(=O)OC(C)(C)C)c1ccc(Cl)cc1` (configuration not stated) here?
Answer: Its value is inactive: 2.51%.

Question: With `Cc1nnc(SCC(=O)N2CCN(c3cccc(Cl)c3)CC2)n1C1CC1` as the compound, how does the Potency read?
Answer: The Potency was inconclusive: 16.4 µM [inhibitor, partial curve].

Question: For `CN(C(=O)CCl)C1CCCc2ccccc21` (configuration not stated), which “activity change, negative = inhibition” value is on record?
Answer: Its value is inactive: 3.78%.

Question: For `O=C(c1ccc2ccccc2c1)N1CCN(c2ccccn2)CC1`, which Potency is on record?
Answer: Its Potency is inconclusive: 0.501 µM [inhibitor, single point].

Question: For `CC(C(=O)Nc1ccccc1)C(=O)Nc1ccccc1`, which “activity change, negative = inhibition” value is on record?
Answer: Its value is inactive: 25.9%.

Question: Which Potency does the source give for `COc1ccc(S(=O)(=O)NCCSC(C)(C)C)cc1Cl` here?
Answer: The Potency was inconclusive: 25.9 µM [inhibitor, partial curve, poor fit].

Question: With `O=C(N/N=C\c1ccc[nH]1)c1cncc(Br)c1` as the compound, how does the “activity change, negative = inhibition” value read?
Answer: Its value is inactive: -1.98%.

Question: With `Oc1ccc(N=Nc2c(O)ccc3ccccc23)cc1` as the compound, how does the “activity change, negative = inhibition” value read?
Answer: Its value is inactive: 20.1%.

Question: With `c1ccc(-c2csc(N3CCc4ccccc4C3)n2)cc1` as the compound, how does the Potency read?
Answer: The Potency was inconclusive: 23.1 µM [activator, partial curve].

Question: For `Cc1ccc(N(C(=O)C(F)(F)F)C(C(=O)NC2CCCCC2)c2cccs2)cc1C` (configuration not stated), which “activity change, negative = inhibition” value is on record?
Answer: The value was inactive: -6.64%.

Question: For `NC(=O)COc1ccccc1`, which “activity change, negative = inhibition” value is on record?
Answer: The value was inactive: -9.77%.

Question: With `CCOC(=O)C(C)(C)N(Cc1ccc(C)cc1)S(=O)(=O)c1ccc(Cl)c([N+](=O)[O-])c1` as the compound, how does the Potency read?
Answer: Its Potency is inconclusive: 20.6 µM [inhibitor, single point].

Question: For `COc1ccc(CCC(=O)OCC(=O)NCc2ccccc2)cc1`, which Potency is on record?
Answer: Its Potency is inconclusive: 6.31 µM [activator, single point].

Question: With `CC(C)(C)C(=O)Nc1nc(=S)ss1` as the compound, how does the Potency read?
Answer: Its Potency is inconclusive: 23.1 µM [inhibitor, single point].

Question: With `O=C(Nc1ccc(Oc2cccc(C(F)(F)F)c2)nc1)c1ccccc1` as the compound, how does the Potency read?
Answer: The Potency was inconclusive: 29.1 µM [inhibitor, single point].

Question: For `O=[N+]([O-])c1ccc(-c2ccc(/C=N/c3c(-c4ccco4)nc4ccccn34)o2)cc1`, which Potency is on record?
Answer: Its Potency is inconclusive: 25.9 µM [activator, single point].

Question: With `C#CCSc1nnc(-c2ccc(O)cc2)o1` as the compound, how does the Potency read?
Answer: Its Potency is inconclusive: 18.3 µM [activator, partial curve].

Question: For `Cc1ccc(N(C)S(=O)(=O)c2cccc(C(=O)Nc3nc4ccccc4[nH]3)c2)cc1`, which Potency is on record?
Answer: Its Potency is active: 23.1 µM.

Question: Which Potency does the source give for `Nc1cc(C(F)(F)F)ccc1OCC1CCCO1` (configuration not stated) here?
Answer: Its Potency is inconclusive: 18.3 µM [activator, single point].

Question: Which “activity change, negative = inhibition” value does the source give for `COC(=O)c1cc(O)cc(OC)c1C(=O)c1c(O)cc(C)cc1O` here?
Answer: The value was inactive: -1.5%.

Question: With `O=C(/C=C\c1cn(-c2ccccc2)nc1-c1ccc2c(c1)OCCO2)N1CCOCC1` as the compound, how does the Potency read?
Answer: The Potency was active: 3.26 µM.

Question: Which Potency does the source give for `CCc1ccc(NC(=O)Cn2nnc(C(=O)NCc3ccc4c(c3)OCO4)c2N)cc1` here?
Answer: The Potency was inconclusive: 16.4 µM [activator, single point].

Question: For `O=C(Nc1ccccc1C(=O)N/N=C/c1ccco1)c1ccccc1Cl`, which “activity change, negative = inhibition” value is on record?
Answer: Its value is inactive: 3.37%.

Question: For `COc1ccc(-c2c[n+]3c(n2-c2ccc(C)cc2)CCCCC3)cc1`, which Potency is on record?
Answer: The Potency was active: 0.92 µM.

Question: Which “activity change, negative = inhibition” value does the source give for `NC(=S)N/N=C/c1ccc(/C=N/NC(N)=S)cc1` here?
Answer: The value was inactive: 12.3%.

Question: Which Potency does the source give for `Cc1nc2ccc(NC(=O)c3ccco3)cc2nc1C` here?
Answer: The Potency was inconclusive: 20.6 µM [activator, single point].

Question: Which Potency does the source give for `CCN1C(=S)SC(=O)C1=C1C=C(C)N(CCOC)C(C)=C1` here?
Answer: The Potency was inconclusive: 1.84 µM [activator, full curve].

Question: Which Potency does the source give for `CCCN(CC#CC(O)(c1ccccc1)c1cccnc1)CCC` (configuration not stated) here?
Answer: Its Potency is inconclusive: 16.4 µM [inhibitor, partial curve, poor fit].

Question: Which Potency does the source give for `C=CCN1C(=O)C(CC(=O)NCC)SC1=Nc1ccccc1OC` (configuration not stated) here?
Answer: Its Potency is inconclusive: 5.17 µM [activator, partial curve, poor fit].

Question: With `COc1ccc(-c2oc3cccnc3c2C#CC2(O)CCCCC2)cc1` as the compound, how does the Potency read?
Answer: The Potency was inconclusive: 25.9 µM [inhibitor, single point].

Question: Which Potency does the source give for `CCCCCC(=O)N/N=C/c1ccccc1[N+](=O)[O-]` here?
Answer: Its Potency is inconclusive: 20.6 µM [activator, partial curve, poor fit].

Question: Which Potency does the source give for `O=c1[nH]c(-c2ccco2)nc2sc3c(c12)CCCC3` here?
Answer: Its Potency is inconclusive: 9.2 µM [activator, partial curve].

— PubChem BioAssay AID504467 (National Center for Advancing Translational Sciences (NCATS), 2011)
